# Laboratory results as given in patent USRE41151E1, “Protected forms of pharmacologically active agents and uses thereof” (Medinox, Inc., priority 2000, dated 2010).
# Test: Plasma pharmacokinetics of naproxen after oral administration in rats
# Format: in vivo, rat
smiles,measurement,setting,value
COc1ccc2cc([C@H](C)C(=O)O)ccc2c1 [Naproxen],Cmax,"male, Sprague-Dawley, rat, plasma, po, 2 mg/kg",7770 ± 4130 ng/mL
same,AUCall,"naproxen in plasma, oral, 2 mg/kg (amount of naproxen in dose), rats",50 ± 6 μg * ht/mL
